Record: PubChem BioAssay AID504805 (Drosophila RNAi Screening Center, 2011)
This is not the whole library: the list holds selected reagents. 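Phenotypes are words from visual inspection of images, not measured scores.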 Names joined by + are all predicted targets of the reagent.

Purpose: 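Fly genes required for export of polyadenylated mRNA from the nucleus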 (primary screen)
Cells: Drosophila S2R+ cells
Reagent: long dsRNA against Drosophila genes, 0.25 µg dsRNA per well
Duration: 4 days
Detection: 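Poly(A) RNA detected by in situ hybridisation with a fluorescent oligo-dT probe, nuclei stained with a DNA dye; images judged by eye, phenotype noted per replicate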

target gene	dsRNA	phenotype, replicate 1	phenotype, replicate 2
CG6443	DRSC02958	poly(A) RNA held back in the nucleus	
mtm	DRSC03576	poly(A) RNA held back in the nucleus	
CG6791	DRSC16118	poly(A) RNA held back in the nucleus	
CG42361	DRSC04391	poly(A) RNA held back in the nucleus	
CG2310	DRSC15438	poly(A) RNA held back in the nucleus	
Mct1	DRSC18681	poly(A) RNA held back in the nucleus	
CG15093	DRSC06522	poly(A) RNA held back in the nucleus	
Picot	DRSC07508	poly(A) RNA held back in the nucleus	
lncRNA:CR32657	DRSC19403	poly(A) RNA held back in the nucleus	
CG10841	DRSC14271	poly(A) RNA held back in the nucleus	
RpL12	DRSC04344	poly(A) RNA held back in the nucleus	
CG7800	DRSC16315	poly(A) RNA held back in the nucleus	
CG10993	DRSC19362	poly(A) RNA held back in the nucleus	
CG3078	DRSC18531	poly(A) RNA held back in the nucleus	
mtd	DRSC12381	poly(A) RNA held back in the nucleus	
dpr11	DRSC12562	poly(A) RNA held back in the nucleus	
Acsx1L	DRSC16014	poly(A) RNA held back in the nucleus	
U2A	DRSC06445	poly(A) RNA held back in the nucleus	
CG5758	DRSC02889	poly(A) RNA held back in the nucleus	
MtnC	DRSC22879	poly(A) RNA held back in the nucleus	
Mnr	DRSC20550	poly(A) RNA held back in the nucleus	
CR31824	DRSC01517	poly(A) RNA held back in the nucleus	
CG5377	DRSC15783	poly(A) RNA held back in the nucleus	
CG12071	DRSC14471	poly(A) RNA held back in the nucleus	
CG2685	DRSC18463	poly(A) RNA held back in the nucleus	poly(A) RNA held back in the nucleus
eIF4E3	DRSC10952	poly(A) RNA held back in the nucleus	
Setd3	DRSC18269	poly(A) RNA held back in the nucleus	
CG2921	DRSC04324	poly(A) RNA held back in the nucleus	poly(A) RNA held back in the nucleus
825-Oak + CG32214 + CG12519 + 1 more	DRSC09615	poly(A) RNA held back in the nucleus	
CG42633	DRSC16061	poly(A) RNA held back in the nucleus	
mip120	DRSC06960	poly(A) RNA held back in the nucleus	
Usp15-31	DRSC04532	poly(A) RNA held back in the nucleus	
Usp30	DRSC18265	poly(A) RNA held back in the nucleus	
CG6236	DRSC15999	poly(A) RNA held back in the nucleus	
CG11406	DRSC04010	poly(A) RNA held back in the nucleus	
Abcd1	DRSC17157	poly(A) RNA held back in the nucleus	
Dis3	DRSC16034	poly(A) RNA held back in the nucleus	
cbt	DRSC00655	poly(A) RNA held back in the nucleus	
Nadk1b	DRSC05432	poly(A) RNA held back in the nucleus	
Nepl16	DRSC14650	poly(A) RNA held back in the nucleus	
eRF1	DRSC11779	poly(A) RNA held back in the nucleus	

Laid out differently: entries from further up
lncRNA:CR32657 [DRSC19403]: phenotype, replicate 1 = poly(A) RNA held back in the nucleus
CG10841 [DRSC14271]: phenotype, replicate 1 = poly(A) RNA held back in the nucleus
RpL12 [DRSC04344]: phenotype, replicate 1 = poly(A) RNA held back in the nucleus
CG7800 [DRSC16315]: phenotype, replicate 1 = poly(A) RNA held back in the nucleus
CG10993 [DRSC19362]: phenotype, replicate 1 = poly(A) RNA held back in the nucleus

More entries:
target gene	dsRNA	phenotype, replicate 1	phenotype, replicate 2
ZC3H3	DRSC10696	poly(A) RNA held back in the nucleus	poly(A) RNA held back in the nucleus
CG42588	DRSC09820	poly(A) RNA held back in the nucleus	
Nt5b	DRSC19977	poly(A) RNA held back in the nucleus	
hoip	DRSC03546	rounded cells with spots of RNA in the cytoplasm	rounded cells with spots of RNA in the cytoplasm
Eip93F	DRSC13527	poly(A) RNA held back in the nucleus	
CG15202	DRSC19649	poly(A) RNA held back in the nucleus	
Or82a	DRSC11996	poly(A) RNA held back in the nucleus	
Sse	DRSC09746	poly(A) RNA held back in the nucleus	
aurB	DRSC03548	poly(A) RNA held back in the nucleus	
eIF2Bgamma	DRSC07100	poly(A) RNA held back in the nucleus	
CG4629	DRSC00659	poly(A) RNA held back in the nucleus	
Hel25E	DRSC03342	poly(A) RNA held back in the nucleus	poly(A) RNA held back in the nucleus
CG11298	DRSC04100	poly(A) RNA held back in the nucleus	
Fs	DRSC06259	poly(A) RNA held back in the nucleus	
CG42700	DRSC06292	poly(A) RNA held back in the nucleus	poly(A) RNA held back in the nucleus
CG34268	DRSC07874	poly(A) RNA held back in the nucleus	
CG18281	DRSC11742	poly(A) RNA held back in the nucleus	
CG11977	DRSC14454	poly(A) RNA held back in the nucleus	
Hey	DRSC07440	poly(A) RNA held back in the nucleus	cells possibly dying
Tango2	DRSC21526	poly(A) RNA held back in the nucleus	
CG12009	DRSC08217	poly(A) RNA held back in the nucleus	
CG10339	DRSC04065	poly(A) RNA held back in the nucleus	
dati	DRSC17153	poly(A) RNA held back in the nucleus	
TwdlF	DRSC12225	poly(A) RNA held back in the nucleus	
CG15254	DRSC01870	poly(A) RNA held back in the nucleus	
CG12075	DRSC17801	poly(A) RNA held back in the nucleus	
BTBD9	DRSC22371	poly(A) RNA held back in the nucleus	
mRpS9	DRSC15456	poly(A) RNA held back in the nucleus	
Lmpt	DRSC09450	poly(A) RNA held back in the nucleus	
a	DRSC04667	poly(A) RNA held back in the nucleus	
RpS14b	DRSC18711	poly(A) RNA held back in the nucleus	poly(A) RNA held back in the nucleus
CG42676	DRSC08392	poly(A) RNA held back in the nucleus	
CG18558	DRSC21593	poly(A) RNA held back in the nucleus	
Vps24	DRSC12332	poly(A) RNA held back in the nucleus	
CG9517 (retired record)	DRSC20193	poly(A) RNA held back in the nucleus	
CR13656	DRSC13705	poly(A) RNA held back in the nucleus	
prom	DRSC22088	poly(A) RNA held back in the nucleus	
CG31760	DRSC02590	poly(A) RNA held back in the nucleus	
CG14615	DRSC20627	poly(A) RNA held back in the nucleus	
CG17803	DRSC22811	poly(A) RNA held back in the nucleus	
Msp300	DRSC00854	poly(A) RNA held back in the nucleus	
CG15345 (retired record)	DRSC18030	poly(A) RNA held back in the nucleus	
stg	DRSC17071	poly(A) RNA held in nucleus; cells enlarged	
Rexo5	DRSC10981	poly(A) RNA held back in the nucleus	
CG32248	DRSC08102	poly(A) RNA held back in the nucleus	
pico	DRSC19430	poly(A) RNA held back in the nucleus	
sip1	DRSC03609	poly(A) RNA held back in the nucleus	
sip1	DRSC22648	poly(A) RNA held back in the nucleus	
ChT	DRSC16296	poly(A) RNA held back in the nucleus	
seq	DRSC06863	poly(A) RNA held back in the nucleus	
CG33095	DRSC14441	poly(A) RNA held back in the nucleus	
Rbf2	DRSC16816	poly(A) RNA held back in the nucleus	
CG7384	DRSC03053	poly(A) RNA held back in the nucleus	
CG7611	DRSC11840	poly(A) RNA held back in the nucleus	
Shmt	DRSC18264	poly(A) RNA held back in the nucleus	
RunxB	DRSC20526	poly(A) RNA held back in the nucleus	
Vps52	DRSC03050	poly(A) RNA held back in the nucleus	
RpL37-1	DRSC21646	poly(A) RNA held back in the nucleus	
CCT7	DRSC16410	poly(A) RNA held back in the nucleus	
RhoGAP93B	DRSC15488	poly(A) RNA held back in the nucleus	
Acp36DE	DRSC01860	poly(A) RNA held back in the nucleus	
CG15480	DRSC02490	poly(A) RNA held back in the nucleus	
CG6621	DRSC16076	poly(A) RNA held back in the nucleus	
Ets65A	DRSC11164	poly(A) RNA held back in the nucleus	
